In article doi:10.1101/2025.09.02.673672:
Where two headings read alike, the source gives them in different places. These are yes or no findings as the source states them, for the method shown. In cells and extracts the contact can be indirect. Binding calls can cover weak binding; strength is not graded here. Sequences can lack the tags named with a protein.

Experiments:
[1] = biological target: PRRSV nsp12-mCherry (PRRSV strain VR2332); assay: co-IP
[2] = biological target: PRRSV nsp12-mCherry (PRRSV strain VR2332); assay: co-IP; remark: listed apart in the source

B1: HA-tagged NDP52 (receptor, UniProt Q13137 1-446)
chain: MEETIKDPPTSAVLLDHCHFSQVIFNSVEKFYIPGGDVTCHYTFTQHFIPRRKDWIGIFRVGWKTTREYYTFMWVTLPIDLNNKSAKQQEVQFKAYYLPKDDEYYQFCYVDEDGVVRGASIPFQFRPENEEDILVVTTQGEVEEIEQHNKELCKENQELKDSCISLQKQNSDMQAELQKKQEELETLQSINKKLELKVKEQKDYWETELLQLKEQNQKMSSENEKMGIRVDQLQAQLSTQEKEMEKLVQGDQDKTEQLEQLKKENDHLFLSLTEQRKDQKKLEQTVEQMKQNETTAMKKQQELMDENFDLSKRLSENEIICNALQRQKERLEGENDLLKRENSRLLSYMGLDFNSLPYQVPTSDEGGARQNPGLAYGNPYSGIQESSSPSPLSIKKCPICKADDICDHTLEQQQMQPLCFNCPICDKIFPATEKQIFEDHVFCHSL
- binding [1]: binds
- binding [2]: binds
